Earlier results in patent publication US9801907B2, “Film-coated and/or granulated calcium-containing compounds and use therof in pharmaceutical compositions” (Takeda Nycomed AS, priority 2005, dated 2017).

Settings: sucrose as comparison

Row | Molecule | sweetening effect (compared to sucrose)
1 | OC[C@@H](O)[C@@H](O[C@H]1O[C@H](CO)[C@@H](O)[C@H](O)[C@H]1O)[C@H](O)[C@@H](O)CO [Maltitol] | ≥ 1
2 | OC[C@@H](O)[C@@H](O)[C@H](O)[C@@H](O)CO [Sorbitol] | 0.55
3 | OC[C@@H](O)[C@H](O)[C@@H](O)CO [Xylitol] | 1
4 | Isomalt | > 0.5
